# Measurements: PubChem BioAssay AID1117319 (Southern Research Institute, 2015)
# The chains behind the UniProt entries cited, without tags or fusion partners. Where a name states a change or a piece, a line headed by the entry shows the natural chain unless it says otherwise.
# UniProt P69720: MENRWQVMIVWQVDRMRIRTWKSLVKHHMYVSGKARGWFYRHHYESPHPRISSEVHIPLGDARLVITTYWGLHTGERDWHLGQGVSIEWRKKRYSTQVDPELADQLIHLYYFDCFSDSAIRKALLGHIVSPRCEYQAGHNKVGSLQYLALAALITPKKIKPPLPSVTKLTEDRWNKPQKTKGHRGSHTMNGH
# UniProt P69721: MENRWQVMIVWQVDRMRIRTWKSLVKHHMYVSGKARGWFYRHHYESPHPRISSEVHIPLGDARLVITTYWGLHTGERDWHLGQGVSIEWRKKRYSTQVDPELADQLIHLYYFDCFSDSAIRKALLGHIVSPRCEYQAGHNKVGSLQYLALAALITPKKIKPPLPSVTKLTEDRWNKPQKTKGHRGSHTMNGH
# UniProt P69722: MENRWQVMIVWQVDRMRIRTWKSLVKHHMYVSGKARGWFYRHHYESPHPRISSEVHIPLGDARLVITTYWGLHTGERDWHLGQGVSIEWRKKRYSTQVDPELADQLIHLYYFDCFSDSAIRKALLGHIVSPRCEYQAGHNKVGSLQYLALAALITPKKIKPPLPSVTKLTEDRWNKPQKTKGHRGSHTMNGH
# UniProt P69723: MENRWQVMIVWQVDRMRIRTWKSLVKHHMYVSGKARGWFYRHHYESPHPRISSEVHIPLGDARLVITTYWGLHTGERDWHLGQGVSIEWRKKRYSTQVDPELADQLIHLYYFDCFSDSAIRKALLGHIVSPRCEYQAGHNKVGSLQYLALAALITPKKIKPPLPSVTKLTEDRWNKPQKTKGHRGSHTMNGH
# UniProt Q9HC16: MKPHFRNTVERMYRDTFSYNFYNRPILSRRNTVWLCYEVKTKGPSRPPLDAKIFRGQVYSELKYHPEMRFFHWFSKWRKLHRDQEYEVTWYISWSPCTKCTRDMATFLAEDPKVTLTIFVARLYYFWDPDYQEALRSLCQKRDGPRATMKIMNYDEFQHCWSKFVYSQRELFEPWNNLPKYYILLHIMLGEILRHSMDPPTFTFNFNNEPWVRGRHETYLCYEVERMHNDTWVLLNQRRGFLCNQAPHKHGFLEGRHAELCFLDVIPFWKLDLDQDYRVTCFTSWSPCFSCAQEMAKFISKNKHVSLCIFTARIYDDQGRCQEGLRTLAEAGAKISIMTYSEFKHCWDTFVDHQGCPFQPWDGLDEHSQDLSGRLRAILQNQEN
# Hit rate of the full screen: of about 260,000 compounds, about 1,500 (0.58%) were called active. Inconclusive results, whose numbers are uncertain, are shown with a selection of clear calls.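 How the source made its calls: active means inhibition above a set limit at one or more doses, reproduced on every date tested; inconclusive means results disagree between test dates, or hit never tested in dose response; inactive means the rest.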
# Biological target: Virion infectivity factor (Human immunodeficiency virus type 1 group M subtype B (isolate BH10)) + Virion infectivity factor (Human immunodeficiency virus type 1 group M subtype B (isolate BRU/LAI)) + Virion infectivity factor (Human immunodeficiency virus type 1 group M subtype B (isolate PCV12)) + Virion infectivity factor (Human immunodeficiency virus type 1 group M subtype B (isolate HXB2)) + DNA dC->dU-editing enzyme APOBEC-3G (Homo sapiens) (UniProt P69720+P69721+P69722+P69723+Q9HC16)
# Assay: inhibitors of Vif binding to APOBEC3G peptide, primary screen, biochemical, TR-FRET, GST-Vif 1-94, biotin-A3G peptide, dose response retest (AID 1117319);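 further: Vif residues 1-94 fused to GST binding biotinylated APOBEC3G peptide 110-148; 0% = full assay without inhibitor and 100% = GST in place of GST-Vif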
# Settings: active compounds read high
row,SMILES,inhibition
1,Nc1ccc2nc3n(c(=O)c2c1)CCC3,inconclusive: 27.2%
2,O=C(CSCCSCC(=O)c1ccco1)c1ccco1,inconclusive: 37.6%
3,O=C(c1ccc(Br)cc1)N1CCC2(CC1)NCCc1[nH]cnc12,inconclusive: 45.3%
4,O=c1cc(CN2CCc3ccccc3C2)nc2sccn12,inconclusive: 51.5%
5,O=C(O)c1cc(-c2ccc(/C=C3\NC(=O)N(c4ccccc4)C3=O)o2)ccc1Cl,inactive: 25.2%
6,Cc1cc(C)c(S(=O)(=O)Nc2cccc3nsnc23)c(C)c1,inconclusive: 52.6%
7,CCn1c(SCC(=O)Nc2sc(C)c(C)c2C#N)nnc1C(C)C,inconclusive: 34.4%
8,COc1ccccc1Oc1ccc2c(c1)C(=O)N(c1ccc(C)cc1)C2=O,inconclusive: 36.6%
9,CC(=O)N1CCN(S(=O)(=O)c2cccc(C(=O)NNC(=O)COc3c(C)cccc3C)c2)CC1,inactive: -12.3%
10,O=S(=O)(c1cccc(C(F)(F)F)c1)N1CCN(C(=S)NC2CC2)CC1,inconclusive: 42.9%
11,COC(=O)c1ccc(CSc2nc3c(cnn3-c3ccc(C)c(C)c3)c(=O)[nH]2)o1,inconclusive: 54.6%
12,Cc1ccc(OCCSc2nnc(C)c(=O)n2N)cc1,inconclusive: 40.8%
13,N#CC(C#N)=C1C=C2C=C(N3CCCCCC3)CCC2CC1 (centres undefined),inactive: 8.28%
14,COc1ccc2[nH]c(=O)c(CN(C3CCCCC3)C(c3nnnn3Cc3ccco3)C(C)C)cc2c1 (centres undefined),inconclusive: 33.4%
15,O=C(N/N=C/c1ccc([N+](=O)[O-])o1)C1CC1,inconclusive: 36.8%
16,CC(=O)N1[C@H](Cc2ccccc2)C=C[C@]1(C)C(=O)NCc1ccccn1,inconclusive: 37.2%
17,C=CCc1ccc(OCC(O)CN2CCCCC2C)c(OC)c1 (centres undefined),inconclusive: 55.6%
18,CCOc1ccc2nc(NS(=O)(=O)c3ccc(NC(C)=O)cc3)sc2c1,inconclusive: 44.7%
19,CCn1c(COc2cccc(OC)c2)nnc1SCC(=O)Nc1cc(OC)ccc1OC,inconclusive: 43.9%
20,Cc1ccc(-c2cc3cccc[n+]3cc2-c2ccc(C)cc2)cc1,inactive: 10.5%
21,COc1ccc(OC(=O)Nc2ccc([N+](=O)[O-])cc2OC)cc1,inconclusive: 62.6%
22,O=C(Nc1ccc2c(c1)OCO2)[C@@H]1[C@@H]2C(=O)N(C3CCCCC3)C(=O)[C@@H]2C2c3ccccc3C=CN21 (some centres undefined),inconclusive: 44.2%
23,Cc1c(NC(=O)c2ccc(S(=O)(=O)N3CC(C)OC(C)C3)cc2)c(=O)n(-c2ccccc2)n1C (centres undefined),inconclusive: 35.5%

row,SMILES,inhibition
1,O=C(Nc1ccccc1)NC1(C(=O)N2CCN(c3ncccn3)CC2)CCCCC1,inconclusive: 32%
2,CC(N=C1NS(=O)(=O)c2ccccc21)c1ccccc1 (centres undefined),inconclusive: 33%
3,CSc1nsc(SCC(=O)NC2CCCCC2)n1,inconclusive: 16.6%
4,CSc1nn2c(C(F)(F)F)cc(C(F)(F)F)nc2c1C(=O)O,inconclusive: 42.3%
5,O=C(COc1ccccc1F)NCC(c1ccco1)N1CCCC1 (centres undefined),inconclusive: 41.5%
6,COc1ccc(NC(=O)c2cnn3c(C(F)(F)F)cc(-c4ccco4)nc23)cc1OC,inconclusive: 61.9%
7,O=C(Oc1cccc(N2C(=O)CCC2=O)c1)c1ccccc1,inconclusive: 33.1%
8,CCCCC(=O)NC(=S)Nc1cc(C(=O)O)ccc1OC,inactive: 6.07%
9,CCN(CC)S(=O)(=O)c1ccc(S(=O)(=O)N2CCN(CCC#N)CC2)cc1,inconclusive: 52.1%
10,C=CCn1c(Sc2nnc(C)s2)nc2c1c(=O)[nH]c(=O)n2C,inactive: 3.94%
11,COc1ccc(-n2c(SCC(=O)Nc3nccs3)nc3sc4c(c3c2=O)CCN(C)C4)cc1,inconclusive: 54%
12,CCCCNc1ccc(S(=O)(=O)c2cccc([N+](=O)[O-])c2)cc1[N+](=O)[O-],inconclusive: 41.8%
13,COc1ccc(N2CCN(C(=O)CSc3nnc(CNc4ccccc4)o3)CC2)cc1,inconclusive: 49.3%
14,CCOC(=O)c1cc(-c2ccc(/C=C3/C(=O)NC(=O)C(C#N)=C3C)o2)ccc1Cl,inconclusive: 56.6%
15,COc1ccc(CN=Cc2c(C(F)(F)F)[nH][nH]c2=O)cc1,inconclusive: 54.3%
16,COc1ccc(N2Cc3cccc(C(=O)O)c3C2=O)cc1,inconclusive: 42.3%
17,COC(=O)Oc1c(Br)c(=O)oc2ccccc12,inconclusive: 43.1%
18,CCN(CC)CCCNC(CC(=O)Nc1cccc([N+](=O)[O-])c1)C(=O)O (centres undefined),inconclusive: 34.2%
19,COCC(=O)Nc1cc(C)c2c(=O)oc3ccccc3c2n1,inconclusive: 43.1%
20,CCN1CCN(CC(=O)c2ccc(OC)cc2)CC1,inconclusive: 48.5%
21,CC(C(=O)Nc1ccc2c(c1)OCCO2)N1Cc2ccccc2C1=O (centres undefined),inactive: 7.84%
22,O=c1[nH]c2cc3c(cc2cc1C(c1nnnn1Cc1ccccc1)N1CCCc2ccccc21)OCO3 (centres undefined),inconclusive: 39.6%
23,CC1CCCC(C)N1C(=O)COc1cccc(Oc2ccccc2)c1 (centres undefined),inactive: -6.13%

row,SMILES,inhibition
1,Cc1nn(CCc2nc(-c3ccco3)cs2)c2[nH]c(=O)cc(C(F)(F)F)c12,inconclusive: 45.9%
2,CCN(CC)S(=O)(=O)c1ccc(S(=O)(=O)N(Cc2ccccn2)Cc2ccco2)cc1,inconclusive: 37.4%
3,CC(=O)Nc1ccc(NC(=O)Cn2ccc([N+](=O)[O-])n2)cc1,inactive: 11.7%
4,CCN(CC)S(=O)(=O)c1c(OC)cc(C)c(Cl)c1C,inconclusive: 62.7%
5,O=C(Cc1n[nH]c(=O)[nH]c1=O)N/N=C/CCc1ccccc1,inconclusive: 43.2%
6,COc1cc2c(cc1OC)CN(C(=S)Nc1cccc(Cl)c1C)CC2,inconclusive: 34.5%
7,Cc1ccc(C(=O)/C=C/c2ccco2)c(O)c1,inconclusive: 37.7%
8,CCc1cccc(CC)c1N(COC)C(=O)Cn1c(CO)nc2ccccc21,inconclusive: 52.8%
9,Cc1ccc(Oc2nc(C(F)(F)F)nc3ccccc23)cc1,inconclusive: 33.6%
10,O=C(CN1C(=O)C2CCCCC2C1=O)Nc1ccc(S(=O)(=O)Nc2ncccn2)cc1 (centres undefined),inconclusive: 53.6%
11,Cn1c(=O)c(/C=C/c2ccc(F)cc2)nc2ccccc21,inconclusive: 43.2%
12,CC(=O)N1CCSc2ccc(S(=O)(=O)NCc3ccccc3)cc21,inconclusive: 56.3%
13,COC(=O)c1cccnc1NC(=S)NNC(=O)c1ccncc1,inconclusive: 50.6%
14,O=C1S/C(=C\c2ccc(Cl)cc2)C(=O)N1CCn1cnnn1,inconclusive: 50.1%
15,C/C(=N/NC(=O)CNC(=O)c1cccnc1)c1ccc([N+](=O)[O-])cc1,inconclusive: 39.2%
16,CC(C)Cn1cnc2c(c1=O)c1nc3ccccc3nc1n2Cc1ccc2c(c1)OCO2,inconclusive: 51.8%
17,Cc1cccnc1NC1CCCCC1,inconclusive: 44.6%
18,O=C(O)/C(=C\c1ccccc1)c1ccccc1,inconclusive: 61.5%
19,Cc1sc2ncnc(NCC(c3ccco3)N3CCCC3)c2c1C (centres undefined),inconclusive: 50.1%
20,O=[N+]([O-])c1ccc(/C([O-])=C(/C(=S)Nc2ccccc2F)[n+]2ccccc2)cc1,inconclusive: 43.5%
21,CCOC(=O)c1c(NS(=O)(=O)c2cccc(OC)c2)sc2c1CCC2,inconclusive: 59.5%
22,O=C1C(Cl)=C(Nc2ccc(O)cc2)C(=O)c2ccccc21,inconclusive: 36.8%
23,Cc1cc(-c2ccccc2)n2ncnc2n1,inconclusive: 44.1%

# By substructure, the compounds so far with an NH in an aromatic ring
row,SMILES,inhibition
3,O=C(c1ccc(Br)cc1)N1CCC2(CC1)NCCc1[nH]cnc12,inconclusive: 45.3%
11,COC(=O)c1ccc(CSc2nc3c(cnn3-c3ccc(C)c(C)c3)c(=O)[nH]2)o1,inconclusive: 54.6%
14,COc1ccc2[nH]c(=O)c(CN(C3CCCCC3)C(c3nnnn3Cc3ccco3)C(C)C)cc2c1 (centres undefined),inconclusive: 33.4%
10,C=CCn1c(Sc2nnc(C)s2)nc2c1c(=O)[nH]c(=O)n2C,inactive: 3.94%
15,COc1ccc(CN=Cc2c(C(F)(F)F)[nH][nH]c2=O)cc1,inconclusive: 54.3%
22,O=c1[nH]c2cc3c(cc2cc1C(c1nnnn1Cc1ccccc1)N1CCCc2ccccc21)OCO3 (centres undefined),inconclusive: 39.6%
1,Cc1nn(CCc2nc(-c3ccco3)cs2)c2[nH]c(=O)cc(C(F)(F)F)c12,inconclusive: 45.9%
5,O=C(Cc1n[nH]c(=O)[nH]c1=O)N/N=C/CCc1ccccc1,inconclusive: 43.2%

# (cont.)

row,SMILES,inhibition
1,O=c1[nH]c(CSc2nnc(-c3cccnc3)n2C2CCCCC2)nc2ccccc12,inconclusive: 53.4%
2,Cc1ccc(NC(=O)OCCN2CCN(S(=O)(=O)c3ccc(C)cc3)CCC2=O)cc1,inconclusive: 35.9%
3,O=[N+]([O-])c1ccc2c(c1Nc1ccccc1)=NC1(CCCCC1)N=2,inconclusive: 47.5%
4,CC(C)c1ccc2oc(-c3cc(N)ccc3O)nc2c1,inconclusive: 57.7%
5,CCOc1ccc(NC(=O)C(c2ccccn2)N(C(=O)CCl)c2ccc(OCC)cc2)cc1 (centres undefined),inconclusive: 33.7%
6,COc1cccc(Cl)c1NC(=O)N1CCN(c2ccnc3cc(Cl)ccc23)CC1,inconclusive: 60.2%
7,O=[N+]([O-])c1cc2c(cc1C=Nc1ccccc1)OCO2,inconclusive: 45.2%
8,Cc1nn(-c2ccccc2)c(Cl)c1/C=N\NC(=O)c1cnccn1,inconclusive: 43.6%
9,C(=N\Nc1nn[nH]n1)/c1ccccc1,inconclusive: 44.8%
10,Cc1ccc(C)c(NC(=O)C2CCN(S(=O)(=O)c3ccc4c(c3)NC(=O)CO4)CC2)c1,inactive: -1.93%
11,CCN=c1scc(-c2ccco2)n1/N=C/c1ccc(O)cc1,inconclusive: 53.3%
12,Cn1nc(CC(=O)NCc2cccc3ccccc23)c2ccccc2c1=O,inconclusive: 35.5%
13,CCS(=O)(=O)N1CCC(C(=O)NCCC2=CCCCC2)CC1,inconclusive: 60%
14,Cc1ccc(NC2=CC(=O)CC(c3ccco3)C2)c(N)c1 (centres undefined),inactive: 23.3%
15,CCOCCCNC(=O)c1ccc(Br)cc1,inconclusive: 58%
16,Cc1ccsc1C(=O)OCC(=O)Nc1cccc(S(=O)(=O)N2CCOCC2)c1,inactive: 2.2%
17,Cc1cccc2nc(CSCc3ccco3)cn12,inconclusive: 36.1%
18,C=CCOc1c(Br)cc(/C=N/NC(N)=O)cc1OC,inconclusive: 50.1%
19,COc1cc(C2C(C#N)=C(N)N(c3ccc(F)cc3)C3=C2S(=O)(=O)CC3)ccc1O (centres undefined),inconclusive: 34.5%
20,Cc1cccc(NC(=O)c2c(C)cc(=O)oc2C)n1,inconclusive: 58.7%
